Data reported in the supplement of paper PMC11659162.
± gives the standard deviation of the averaged measurements. The list shows a part of the results. The data scatter; read single values as rough.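 The cells are a human neuroglioma line carrying a green fluorescent autophagy reporter.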

Assays:
H4 GFP-LC3 [1] = assay: cell viability (scaled to control) (fraction of control); higher = more viable cells
H4 GFP-LC3 [2] = assay: ACBP immunofluorescence intensity (scaled to control) (AU (scaled)); higher = more intracellular ACBP/DBI

Structure (SMILES) | cell viability (H4 GFP-LC3 [1]; 6 h) | cell viability (H4 GFP-LC3 [1]; 24 h) | ACBP immunofluorescence intensity (H4 GFP-LC3 [2]; 6 h) | ACBP immunofluorescence intensity (H4 GFP-LC3 [2]; 24 h)
COc1cc(C(=O)OCCCN2CCCN(CCCOC(=O)c3cc(OC)c(OC)c(OC)c3)CC2)cc(OC)c1OC (5 µM) | 0.904 | 1.01 | 0.994 | 0.92
OCCN1CCN(CC/C=C2/c3ccccc3Sc3ccc(C(F)(F)F)cc32)CC1 (5 µM) | 0.778 | 1.17 | 0.929 | 0.681
CN(C)CCCCSC(=N)N (5 µM) | 0.97 | 1.23 | 0.983 | 0.896
CN1CCCCC1CCN1c2ccccc2Sc2ccc([S+](C)[O-])cc21 (configuration not stated) (5 µM) | 0.815 ± 0.071 | 1.36 ± 0.12 | 0.975 ± 0.011 | 0.824 ± 0.039
COC(=O)[C@H](c1ccccc1Cl)N1CCc2sccc2C1 (5 µM) | 0.962 | 1.25 | 0.991 | 0.518
CN1[C@@H](CC(=O)c2ccccc2)CCC[C@H]1C[C@H](O)c1ccccc1 (5 µM) | 0.98 | 1.3 | 0.871 | 0.569
C/N=C(/NC#N)NCCSCc1csc(NC(=N)N)n1 (5 µM) | 1.12 | 0.915 | 0.965 | 0.475
CNC(=C[N+](=O)[O-])NCCSCc1ccc(CN(C)C)o1 (5 µM) | 0.863 | 1.12 | 0.997 | 0.886
CCN1CCC[C@H]1CNC(=O)c1c(O)c(Cl)cc(Cl)c1OC (5 µM) | 0.951 | 1.25 | 0.892 | 0.796
CC(N)(C(=O)O)c1ccc(C(=O)O)cc1 (racemic) (5 µM) | 1.02 | 1.34 | 0.909 | 0.5
O=c1[nH]c(=O)c2nc3ccccc3nc2[nH]1 (5 µM) | 0.995 | 1.23 | 0.957 | 0.822
CC(C)NC[C@H](O)COc1cccc2[nH]ccc12 (5 µM) | 0.888 | 0.797 | 0.905 | 0.462
C[C@]12CCC(=O)C=C1CC[C@@H]1[C@@H]2[C@@H](O)C[C@@]2(C)[C@H]1CC[C@]2(O)C(=O)CO (5 µM) | 1.06 | 0.881 | 0.543 | 0.632
NC(N)=NC(N)=Nc1cccc(Cl)c1 (5 µM) | 0.812 | 0.993 | 0.843 | 0.539
Cc1nc2c([nH]1)c(=O)n(C)c(=O)n2Cc1ccco1 (5 µM) | 1.02 | 0.965 | 0.923 | 0.516
CC(C)C[C@H](NC(=O)[C@H](Cc1ccccc1)NC(=O)CNC(=O)CNC(=O)[C@@H](N)Cc1ccc(O)cc1)C(=O)N[C@@H](CCCNC(=N)N)C(=O)N[C@@H](CCCNC(=N)N)C(=O)N[C@@H](CCC(N)=O)C(=O)N[C@@H](Cc1ccccc1)C(=O)N[C@@H](CCCCN)C(=O)N[C@H](C(=O)N[C@H](C(=O)N[C@H](C(=O)O)[C@@H](C)O)C(C)C)C(C)C (5 µM) | 1.15 | 1.11 | 0.898 | 0.697
NCCc1ccc(O)c(O)c1 (5 µM) | 0.763 | 1.33 | 0.987 | 0.739
COc1cc2nc(N3CCN(C(=O)c4ccco4)CC3)nc(N)c2cc1OC (5 µM) | 0.904 | 0.944 | 0.85 | 0.514
CC(=O)N1CCN(C)CC1 (5 µM) | 1.09 | 1.32 | 0.945 | 0.758
Cc1nc2n(c(=O)c1CCN1CCC(c3noc4cc(F)ccc34)CC1)CCCC2 (5 µM) | 0.886 | 1.23 | 0.82 | 0.719
CC(C)NCC(O)COc1ccc(CC(N)=O)cc1 (racemic) (5 µM) | 0.722 | 0.994 | 0.95 | 0.886

Whole records, looked up by structure. Values in the order: cell viability (H4 GFP-LC3 [1]; 6 h) | cell viability (H4 GFP-LC3 [1]; 24 h) | ACBP immunofluorescence intensity (H4 GFP-LC3 [2]; 6 h) | ACBP immunofluorescence intensity (H4 GFP-LC3 [2]; 24 h)
CN1CCCCC1CCN1c2ccccc2Sc2ccc([S+](C)[O-])cc21 (configuration not stated) (5 µM) as listed: 0.815 ± 0.071 | 1.36 ± 0.12 | 0.975 ± 0.011 | 0.824 ± 0.039
COc1cc2nc(N3CCN(C(=O)c4ccco4)CC3)nc(N)c2cc1OC (5 µM) as listed: 0.904 | 0.944 | 0.85 | 0.514

(continued)

Structure (SMILES) | cell viability (H4 GFP-LC3 [1]; 6 h) | cell viability (H4 GFP-LC3 [1]; 24 h) | ACBP immunofluorescence intensity (H4 GFP-LC3 [2]; 6 h) | ACBP immunofluorescence intensity (H4 GFP-LC3 [2]; 24 h)
CC[C@@H]1C(=O)OC[C@@H]1Cc1cncn1C (5 µM) | 1.04 | 1.06 | 0.905 | 0.62
O=C1CC2(CCCC2)CC(=O)N1CCNCC1COc2ccccc2O1 (configuration not stated) (5 µM) | 0.847 | 1.02 | 0.804 | 0.425
NC(C(=O)O)(c1ccc(P(=O)(O)O)cc1)C1CC1 (racemic) (5 µM) | 0.901 | 1.19 | 0.94 | 0.586
C#CCn1c(=O)c2c(ncn2C)n(C)c1=O (5 µM) | 0.999 | 1.05 | 0.963 | 0.633
N=C(N)NCCCCN (5 µM) | 0.918 | 0.706 | 0.64 | 0.428
O=C(Cc1ccccc1)Nc1nc2ccc(Cl)cc2c2nc(-c3ccco3)nn12 (5 µM) | 0.997 | 0.935 | 0.971 | 0.65
C[N+]1(Cc2ccccc2)CCC(C(=O)OCC2CCCC2)CC1 (configuration not stated) (5 µM) | 1 | 1.38 | 0.957 | 0.624
CN1CCC(=C2c3ccccc3CC(=O)c3sccc32)CC1 (5 µM) | 1.1 | 0.926 | 0.943 | 0.611
CC[C@](N)(CCC(=O)O)C(=O)O (5 µM) | 0.884 | 1.04 | 0.998 | 0.83
O=C(O)C=C1CCCc2ccccc2C1O (configuration not stated) (5 µM) | 0.861 | 0.956 | 0.898 | 0.41
Cc1c(C2CCN(CCc3ccccc3)CC2)noc1-c1ccc(Cl)cc1 (5 µM) | 0.632 | 1.11 | 0.931 | 0.466
CSc1ccc2c(c1)N(CCC1CCCCN1C)c1ccccc1S2 (configuration not stated) (5 µM) | 0.858 | 1.3 | 0.921 | 0.784
CC[N+](CC)(CC)CCOc1ccc(/C=C/c2ccccc2)cc1 (5 µM) | 0.984 | 1.3 | 0.844 | 0.525
CCN(CC)CC1CCCCN1CC(=O)N1c2ccccc2C(=O)Nc2cccnc21 (configuration not stated) (5 µM) | 1.05 | 1.17 | 0.828 | 0.566
NC1C=CC=C(C(=O)O)C1 (configuration not stated) (5 µM) | 0.97 | 1.17 | 0.951 | 0.821
C[C@@]1(S)[C@H](O)[C@@H](COP(=O)(O)OP(=O)(O)OP(=O)(O)O)O[C@H]1n1cnc2c(N)ncnc21 (5 µM) | 1.04 | 1.19 | 0.982 | 0.797
CCN1CCC[C@H]1CNC(=O)c1cc(S(N)(=O)=O)ccc1OC (5 µM) | 0.896 | 1.12 | 0.67 | 0.567
NC[C@H](O)c1ccc(O)c(O)c1 (5 µM) | 1.21 | 0.946 | 0.555 | 0.905
O=c1ccn(C2OC(COP(=O)(O)O)C(O)C2O)c(=O)[nH]1 (configuration not stated) (5 µM) | 0.979 | 1.07 | 1 | 0.601
COc1ccccc1N1CCN(CCCCNC(=O)c2ccc(-c3ccc(C(C)=O)cc3)cc2)CC1 (5 µM) | 0.862 | 1.15 | 0.919 | 0.839
Clc1ccc2nsnc2c1NC1=NCCN1 (5 µM) | 0.668 | 0.711 | 0.812 | 0.903

Structure (SMILES) | cell viability (H4 GFP-LC3 [1]; 6 h) | cell viability (H4 GFP-LC3 [1]; 24 h) | ACBP immunofluorescence intensity (H4 GFP-LC3 [2]; 6 h) | ACBP immunofluorescence intensity (H4 GFP-LC3 [2]; 24 h)
CCCn1cnc2c1c(=O)n(CCCCC(C)=O)c(=O)n2C (5 µM) | 0.963 | 1.08 | 0.914 | 0.551
CC(C)NC[C@@H](O)COc1ccc(CC(N)=O)cc1 (5 µM) | 0.797 | 0.884 | 0.917 | 0.795
Cc1cc(C(C)(C)C)c(O)c(C)c1CC1=NCCN1 (5 µM) | 0.768 | 0.876 | 0.952 | 0.478
CN1CCN(c2nc3cc(C(F)(F)F)ccc3n3cccc23)CC1 (5 µM) | 0.879 | 0.993 | 0.814 | 0.668
Nc1ncnc2c1ncn2[C@@H]1O[C@H](COP(=O)(O)OP(=O)(O)OP(=O)(O)O)[C@@H](O)[C@H]1O (5 µM) | 1.04 | 1 | 0.997 | 0.866
N=C(N)NCCCCNC(=N)N (5 µM) | 1.03 | 1.16 | 0.974 | 0.836
c1ccc(N2CCN(CCCOc3ccc4c(c3)OCO4)CC2)cc1 (5 µM) | 0.811 | 1.02 | 0.998 | 0.885
NC(N)=NCCC[C@H](NC(=O)[C@@H](N)Cc1ccc(O)cc1)C(=O)O (5 µM) | 1.13 | 1.08 | 0.843 | 0.657
CN1CCN(CC(=O)N2c3ccccc3C(=O)Nc3cccnc32)CC1 (5 µM) | 0.665 | 1.18 | 0.959 | 0.565
CNCC(O)c1ccc(O)c(O)c1 (racemic) (5 µM) | 1.23 | 0.954 | 0.457 | 0.736
CN1CCN(C2=Nc3ccccc3Oc3ccc(Cl)cc32)CC1 (5 µM) | 0.826 | 1.17 | 0.949 | 0.771
N=C(N)c1ccc(OCCCCCOc2ccc(C(=N)N)cc2)cc1 (5 µM) | 1.11 | 1.09 | 0.809 | 0.611
CNC[C@H](O)c1ccc(O)c(O)c1 (5 µM) | 0.757 | 0.752 | 0.88 | 0.411
c1ccc2c(CC3=NCCN3)cccc2c1 (5 µM) | 0.849 | 0.827 | 0.819 | 0.433
CC(C)(C)c1ccc(C(O)CCCN2CCC(C(O)(c3ccccc3)c3ccccc3)CC2)cc1 (configuration not stated) (5 µM) | 0.838 | 1 | 0.942 | 0.929
CN1CCC[C@H]1c1cccnc1 (5 µM) | 1.01 | 1.12 | 0.92 | 0.539
Cn1c(=O)c2nc[nH]c2n(C)c1=O (5 µM) | 0.995 | 1.05 | 0.938 | 0.763
Cc1cc2c(s1)Nc1ccccc1N=C2N1CCN(C)CC1 (5 µM) | 0.918 | 1.25 | 0.789 | 0.636
COc1ccc(-c2ccc(=N)n(CCCC(=O)O)n2)cc1 (5 µM) | 0.944 | 1.24 | 0.856 | 0.59
CSc1ccc2c(c1)C(N1CCN(C)CC1)Cc1ccccc1S2 (configuration not stated) (5 µM) | 0.621 | 1.03 | 0.998 | 0.723
Nc1ncnc2c1ncn2C1OC(COP(=O)(O)O)C(O)C1O (configuration not stated) (5 µM) | 0.877 | 1.15 | 1 | 0.867
